SMILES strings stand for the structures.

The values that follow come from paper PMC11879040, “Advancing systemic toxicity risk assessment: Evaluation of a NAM-based toolbox approach” (Toxicological Sciences, 2024).

The series can be described thus: Bioactivity:exposure ratio (BER) and toolbox decision (low-risk / uncertain risk). Set-up: species or system human.

Turning to `CC(C)(CO)C(O)C(=O)NCCCO` (centres unmarked) [Panthenol, 2,4-Dihydroxy-N-(3-hydroxypropyl)-3,3-dimethylbutanamide], the “Toolbox decision (low-risk benchmark scenario)” value (driven by HTTr BIFROST HepaRG and MCF7 PoDs) was “uncertain risk”. As to `CC1(C)O[C@@H]2[C@@H](CO[C@@]3(COS(N)(=O)=O)OC(C)(C)O[C@@H]23)O1` [Topiramate, [(3aS,5aR,8aR,8bS)-2,2,7,7-Tetramethyltetrahydro-2H,3aH,7H-bis[1,3]dioxolo[4,5-b:4',5'-d]pyran-3a-yl]methyl sulfamate (non-preferred name)], the “BER from inhibition of the carbonic anhydrase II enzyme” value (L2) is “BER<L2 threshold”.
